Assay results reported in the supplement of paper PMC10849652.
The other results are listed elsewhere or left out.

The chains behind the UniProt entries cited, without tags or fusion partners. Where a name states a change or a piece, a line headed by the entry shows the natural chain unless it says otherwise.
UniProt O14662: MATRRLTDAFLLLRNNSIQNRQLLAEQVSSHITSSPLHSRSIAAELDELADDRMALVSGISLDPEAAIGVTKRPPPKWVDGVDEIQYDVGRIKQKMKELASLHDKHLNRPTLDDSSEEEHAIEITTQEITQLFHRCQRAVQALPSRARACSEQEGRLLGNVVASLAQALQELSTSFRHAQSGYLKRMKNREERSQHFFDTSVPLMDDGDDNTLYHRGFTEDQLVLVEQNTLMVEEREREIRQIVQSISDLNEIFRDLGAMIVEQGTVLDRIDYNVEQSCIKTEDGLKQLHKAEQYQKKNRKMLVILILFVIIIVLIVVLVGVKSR
UniProt P0DMM9: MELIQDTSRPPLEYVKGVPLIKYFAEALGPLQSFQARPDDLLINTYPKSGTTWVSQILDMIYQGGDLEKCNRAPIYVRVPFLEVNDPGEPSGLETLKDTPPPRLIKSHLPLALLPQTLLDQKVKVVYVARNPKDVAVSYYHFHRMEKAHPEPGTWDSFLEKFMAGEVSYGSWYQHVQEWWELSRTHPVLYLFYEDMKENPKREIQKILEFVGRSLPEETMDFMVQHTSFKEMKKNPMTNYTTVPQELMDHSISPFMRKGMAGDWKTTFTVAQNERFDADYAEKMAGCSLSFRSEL
UniProt Q9UJZ1: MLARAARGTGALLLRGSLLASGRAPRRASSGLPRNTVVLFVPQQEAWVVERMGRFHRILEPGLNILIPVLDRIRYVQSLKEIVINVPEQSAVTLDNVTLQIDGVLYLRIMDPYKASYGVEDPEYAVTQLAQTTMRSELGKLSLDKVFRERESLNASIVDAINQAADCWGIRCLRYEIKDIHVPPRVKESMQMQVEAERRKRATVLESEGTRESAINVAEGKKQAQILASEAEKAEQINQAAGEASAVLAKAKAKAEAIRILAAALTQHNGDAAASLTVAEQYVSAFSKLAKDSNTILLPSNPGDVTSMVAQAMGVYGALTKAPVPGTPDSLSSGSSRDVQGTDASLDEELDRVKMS
UniProt Q15833: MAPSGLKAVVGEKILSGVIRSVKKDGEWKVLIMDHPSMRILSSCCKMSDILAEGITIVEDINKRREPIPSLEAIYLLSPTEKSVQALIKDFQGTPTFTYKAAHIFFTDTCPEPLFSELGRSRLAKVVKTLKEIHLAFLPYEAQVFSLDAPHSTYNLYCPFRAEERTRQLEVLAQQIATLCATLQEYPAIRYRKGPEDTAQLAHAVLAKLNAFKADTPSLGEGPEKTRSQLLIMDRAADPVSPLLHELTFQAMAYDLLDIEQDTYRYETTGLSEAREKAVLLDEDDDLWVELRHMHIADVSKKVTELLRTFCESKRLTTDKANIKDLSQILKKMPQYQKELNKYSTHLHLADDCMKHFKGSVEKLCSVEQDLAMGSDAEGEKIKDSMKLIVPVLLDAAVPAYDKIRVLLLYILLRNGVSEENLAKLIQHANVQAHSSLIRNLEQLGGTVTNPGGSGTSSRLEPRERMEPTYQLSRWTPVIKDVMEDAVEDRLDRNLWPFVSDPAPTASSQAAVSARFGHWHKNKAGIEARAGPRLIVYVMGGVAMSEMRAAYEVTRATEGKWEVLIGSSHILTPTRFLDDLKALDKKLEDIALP
UniProt P37802: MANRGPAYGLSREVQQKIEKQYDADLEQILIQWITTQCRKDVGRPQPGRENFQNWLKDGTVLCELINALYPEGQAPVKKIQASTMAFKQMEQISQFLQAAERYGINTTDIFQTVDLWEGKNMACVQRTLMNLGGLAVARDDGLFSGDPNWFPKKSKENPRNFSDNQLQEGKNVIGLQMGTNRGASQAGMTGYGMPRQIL
UniProt O00186: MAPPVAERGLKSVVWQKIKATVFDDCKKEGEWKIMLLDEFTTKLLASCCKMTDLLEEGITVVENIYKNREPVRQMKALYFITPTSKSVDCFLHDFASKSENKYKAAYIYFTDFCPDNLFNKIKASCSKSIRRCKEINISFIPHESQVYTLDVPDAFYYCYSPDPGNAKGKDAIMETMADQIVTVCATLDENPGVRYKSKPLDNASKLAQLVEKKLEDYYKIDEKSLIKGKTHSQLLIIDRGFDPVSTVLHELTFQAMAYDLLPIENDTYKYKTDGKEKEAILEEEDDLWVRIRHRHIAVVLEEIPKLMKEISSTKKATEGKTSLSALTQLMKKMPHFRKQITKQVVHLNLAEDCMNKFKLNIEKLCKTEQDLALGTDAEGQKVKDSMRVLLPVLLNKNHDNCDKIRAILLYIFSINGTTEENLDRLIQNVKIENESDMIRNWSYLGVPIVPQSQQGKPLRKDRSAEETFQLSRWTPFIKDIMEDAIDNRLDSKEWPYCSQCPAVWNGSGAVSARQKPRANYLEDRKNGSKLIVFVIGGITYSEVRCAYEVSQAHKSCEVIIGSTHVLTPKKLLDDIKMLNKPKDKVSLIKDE
UniProt Q86TM6, whole entry, looked up: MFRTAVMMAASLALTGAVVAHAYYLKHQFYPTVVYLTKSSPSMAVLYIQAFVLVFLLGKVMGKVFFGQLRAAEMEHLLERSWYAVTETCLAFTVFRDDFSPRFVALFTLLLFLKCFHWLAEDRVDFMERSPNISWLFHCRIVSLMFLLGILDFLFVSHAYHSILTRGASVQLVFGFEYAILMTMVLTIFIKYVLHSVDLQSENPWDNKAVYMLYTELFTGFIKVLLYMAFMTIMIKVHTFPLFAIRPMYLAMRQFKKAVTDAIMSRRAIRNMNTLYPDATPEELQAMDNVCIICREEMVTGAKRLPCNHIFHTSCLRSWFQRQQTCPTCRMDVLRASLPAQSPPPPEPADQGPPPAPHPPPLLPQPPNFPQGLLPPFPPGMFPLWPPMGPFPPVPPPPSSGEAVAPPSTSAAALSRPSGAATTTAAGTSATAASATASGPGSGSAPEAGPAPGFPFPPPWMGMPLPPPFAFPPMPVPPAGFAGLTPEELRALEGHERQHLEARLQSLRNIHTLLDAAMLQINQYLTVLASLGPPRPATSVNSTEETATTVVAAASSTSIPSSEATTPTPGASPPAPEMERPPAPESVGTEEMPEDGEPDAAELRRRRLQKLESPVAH
UniProt Q9P2W9: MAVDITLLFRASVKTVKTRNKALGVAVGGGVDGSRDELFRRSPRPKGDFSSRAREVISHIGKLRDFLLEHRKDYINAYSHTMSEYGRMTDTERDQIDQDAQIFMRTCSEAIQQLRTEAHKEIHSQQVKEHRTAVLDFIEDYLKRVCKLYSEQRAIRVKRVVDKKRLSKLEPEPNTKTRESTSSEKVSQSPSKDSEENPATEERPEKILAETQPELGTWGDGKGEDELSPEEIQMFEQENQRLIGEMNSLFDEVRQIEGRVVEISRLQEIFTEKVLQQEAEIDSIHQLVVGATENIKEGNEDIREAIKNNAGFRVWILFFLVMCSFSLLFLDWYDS
UniProt Q8N300: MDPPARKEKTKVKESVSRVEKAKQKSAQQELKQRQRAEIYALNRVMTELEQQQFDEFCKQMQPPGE

Legend:
Test in all cases: log2 fold change, soluble protein after heating vs DMSO (PISA); higher = thermal stabilisation; K562 cells, 10 uM, 30 min; active = over 0.2 and 3.5 SD of the protein, either way, in both replicates (recomputed)
[1] = compound: C1=CC=C(C=C1)[C@H](COC2=CC3=C(C=C2)NC(=O)N3)NC(=O)C4=CC=CN(C4=O)CC5=CC(=C(C=C5)F)F
How it was run: (§1)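 K562 cells at 2×10^6 cells/mL were treated with 10 μM compound for 30 min. Aliquots were heated for 3 min across 48°C-58°C, pooled, and extracted in PBS with 0.5% NP-40 at 4°C; soluble protein was the supernatant after 21,000xg for 90 min. Soluble protein was quantified by TMTpro 16plex LC-MS/MS with channel sums equalised, and reported as log2 fold change in thermal stability against DMSO controls, with values from duplicates.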

[2] = compound: CC1=C(SC2=C1C(=N[C@H](C3=NN=C(N32)C)CC(=O)N)C4=CC=C(C=C4)Cl)C
How it was run: as §1

[3] = compound: CC1=C2C(=CC=C1)N=C(N(C2=O)C3=CC=CC=C3C)CN4C=NC5=C(N=CN=C54)N
How it was run: as §1

[4] = compound: Cc1sc2c(c1C)C(c1ccc(Cl)cc1)=N[C@@H](CC(=O)OC(C)(C)C)c1nnc(C)n1-2
How it was run: as §1

[5] = compound: c1ccc([C@@H]2C[C@H]2NC2CCNCC2)cc1
How it was run: as §1

Measured: log2 fold change

STX16 isoform 2 (UniProt O14662)
inactive: [1] 0.003 | [2] 0.03 | [3] 0.033 | [4] -0.121 | [5] 0.028

SULT1A3 isoform 3 (UniProt P0DMM9)
inactive: [1] -0.049 | [2] -0.091 | [3] 0.165 | [4] 0.009 | [5] -0.089

STOML2 (UniProt Q9UJZ1)
inactive: [1] 0.016 | [2] 0.007 | [3] 0.007 | [4] -0.01 | [5] -0.059

STXBP2 isoform 3 (UniProt Q15833)
inactive: [1] -0.15 | [2] -0.05 | [3] 0.071 | [4] 0.031 | [5] -0.03

TAGLN2 isoform 2 (UniProt P37802)
inactive: [1] -0.006 | [2] 0.042 | [3] 0.015 | [4] -0.05 | [5] -0.019

STXBP3 (UniProt O00186)
inactive: [1] -0.062 | [2] 0.059 | [3] 0.046 | [4] 0.107 | [5] -0.064

SYVN1 (UniProt Q86TM6)
inactive: [1] -0.011 | [2] 0.085 | [3] 0.041 | [4] -0.069 | [5] 0.011

STX18 (UniProt Q9P2W9)
inactive: [1] -0.05 | [2] 0.016 | [3] 0.086 | [4] 0.034 | [5] -0.05

SVBP (UniProt Q8N300)
inactive: [1] -0.062 | [2] 0.073 | [3] 0.012 | [4] -0.065 | [5] -0.013
